Our source for the binding values is patent US20030073818A1.

The experiment addresses S-Calcyon fusion protein (N-terminal S peptide tag and residues 93-217 of Calcyon) (human). Nature of the experiment: competition in the pull-down of GSTD1 by immobilized S-Calcyon.

No constants are given. Whether binding was seen depends on the method and setting. In cells and extracts the contact can be indirect. Some entries that bind do so weakly or less than the wild type.

Regarding SVILDYDTDVSLEKI [Peptide1 421-435, peptide containing D1 receptor residues 421-435], the binding result is listed as “binds”.
